Laboratory results from PMC7977447.
No constants are given. Whether binding was seen depends on the method and setting. In cells and extracts the contact can be indirect. Some binding calls cover weakened binding; strength is not graded here.

Biological target: T1, endogenous Fndc5 (human (endogenous in HepG2)) (UniProt Q8NAU1)
T1 sequence: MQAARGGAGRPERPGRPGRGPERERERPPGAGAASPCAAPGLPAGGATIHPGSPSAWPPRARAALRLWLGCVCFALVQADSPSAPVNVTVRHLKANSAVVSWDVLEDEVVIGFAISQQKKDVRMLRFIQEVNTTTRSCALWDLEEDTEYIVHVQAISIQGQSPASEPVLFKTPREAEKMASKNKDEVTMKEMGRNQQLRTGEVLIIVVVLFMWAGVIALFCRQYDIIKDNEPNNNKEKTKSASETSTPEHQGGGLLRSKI
Assay: co-IP; endogenous proteins in HepG2 cells; lysis in radioimmunoprecipitation assay buffer, protein A/G-agarose beads, immunoblotting; normal IgG as control

B1: endogenous SIRT2 (enzyme, UniProt Q8IXJ6 1-389)
chain: MAEPDPSHPLETQAGKVQEAQDSDSDSEGGAAGGEADMDFLRNLFSQTLSLGSQKERLLDELTLEGVARYMQSERCRRVICLVGAGISTSAGIPDFRSPSTGLYDNLEKYHLPYPEAIFEISYFKKHPEPFFALAKELYPGQFKPTICHYFMRLLKDKGLLLRCYTQNIDTLERIAGLEQEDLVEAHGTFYTSHCVSASCRHEYPLSWMKEKIFSEVTPKCEDCQSLVKPDIVFFGESLPARFFSCMQSDFLKVDLLLVMGTSLQVQPFASLISKAPLSTPRLLINKEKAGQSDPFLGMIMGLGGGMDFDSKKAYRDVAWLGECDQGCLALAELLGWKKELEDLVRREHASIDAQSGAGVPNPSTSASPKKSPPPAKDEARTTEREKPQ
**Q.** How did the binding turn out when B1 was run?
**A.** binds
